Assay results reported in the supplement of paper PMC8728848.
Some of the results follow.

Columns and labels:
Assay in all cases: glycan array binding signal (z-score within array); higher = stronger binding
Conditions in all cases: glycan notation: IUPAC condensed, linker removed
[1] = target: Neu5Ac(a2-3)Gal(b1-3)GlcNAc(b1-6)GalNAc
Procedure, shortened: (§1)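 The binding signal is a Z-score computed within each array. Data were drawn from 3228 arrays in the Consortium for Functional Glycomics database, restricted to those with a known protein sequence. Scores were averaged over arrays of the same protein sequence at different concentrations or buffers, and over linkers, and negative values can be taken as non-binding.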

[2] = target: Neu5Ac(a2-3)Gal(b1-3)GlcNAc6S
Procedure, shortened: as §1

[3] = target: Neu5Ac(a2-3)Gal(b1-3)[Fuc(a1-4)]GlcNAc
Procedure, shortened: as §1

[4] = target: Neu5Ac(a2-3)Gal(b1-3)[Fuc(a1-4)]GlcNAc(b1-3)Gal(b1-3)[Fuc(a1-4)]GlcNAc
Procedure, shortened: as §1

[5] = target: Neu5Ac(a2-3)Gal(b1-3)[Fuc(a1-4)]GlcNAc(b1-3)Gal(b1-4)[Fuc(a1-3)]GlcNAc
Procedure, shortened: as §1

[6] = target: Neu5Ac(a2-3)Gal(b1-3)[GlcNAc(b1-6)]GalNAc
Procedure, shortened: as §1

[7] = target: Neu5Ac(a2-3)Gal(b1-3)[Neu5Ac(a2-6)]GalNAc
Procedure, shortened: as §1

[8] = target: Neu5Ac(a2-3)Gal(b1-3)[Neu5Ac(a2-6)]GlcNAc(b1-3)[Fuc(a1-3)[Gal(b1-4)]GlcNAc(b1-6)]Gal(b1-4)Glc
Procedure, shortened: as §1

[9] = target: Neu5Ac(a2-3)Gal(b1-3)]Neu5Ac(a2-3)Gal(b1-4)]GlcNAc
Procedure, shortened: as §1

Neu5Ac(a2-3)Gal(b1-4)Glc = target: Neu5Ac(a2-3)Gal(b1-4)Glc
Procedure, shortened: as §1

[10] = target: Neu5Ac(a2-3)Gal(b1-4)GlcNAc
Procedure, shortened: as §1

[11] = target: Neu5Ac(a2-3)Gal(b1-4)GlcNAc(b1-2)Man
Procedure, shortened: as §1

[12] = target: Neu5Ac(a2-3)Gal(b1-4)GlcNAc(b1-2)Man(a1-3)[GlcNAc(b1-4)][Neu5Ac(a2-3)Gal(b1-4)GlcNAc(b1-2)Man(a1-6)]Man(b1-4)GlcNAc(b1-4)GlcNAc
Procedure, shortened: as §1

[13] = target: Neu5Ac(a2-3)Gal(b1-4)GlcNAc(b1-2)Man(a1-3)[Neu5Ac(a2-3)Gal(b1-4)GlcNAc(b1-2)Man(a1-6)]Man(b1-4)GlcNAc(b1-4)GlcNAc
Procedure, shortened: as §1

[14] = target: Neu5Ac(a2-3)Gal(b1-4)GlcNAc(b1-2)Man(a1-3)[Neu5Ac(a2-3)Gal(b1-4)GlcNAc(b1-2)Man(a1-6)]Man(b1-4)GlcNAc(b1-4)[Fuc(a1-6)]GlcNAc
Procedure, shortened: as §1

[15] = target: Neu5Ac(a2-3)Gal(b1-4)GlcNAc(b1-2)Man(a1-3)[Neu5Ac(a2-6)Gal(b1-4)GlcNAc(b1-2)Man(a1-6)]Man(b1-4)GlcNAc(b1-4)GlcNAc
Procedure, shortened: as §1

[16] = target: Neu5Ac(a2-3)Gal(b1-4)GlcNAc(b1-2)[Neu5Ac(a2-3)Gal(b1-4)GlcNAc(b1-4)]Man(a1-3)[GlcNAc(b1-4)][Neu5Ac(a2-3)Gal(b1-4)GlcNAc(b1-2)[Neu5Ac(a2-3)Gal(b1-4)GlcNAc(b1-6)]Man(a1-6)]Man(b1-4)GlcNAc(b1-4)GlcNAc
Procedure, shortened: as §1

[17] = target: Neu5Ac(a2-3)Gal(b1-4)GlcNAc(b1-2)[Neu5Ac(a2-3)Gal(b1-4)GlcNAc(b1-4)]Man(a1-3)[GlcNAc(b1-4)][Neu5Ac(a2-3)Gal(b1-4)GlcNAc(b1-4)Man(a1-6)]Man(b1-4)GlcNAc(b1-4)GlcNAc
Procedure, shortened: as §1

[18] = target: Neu5Ac(a2-3)Gal(b1-4)GlcNAc(b1-2)[Neu5Ac(a2-3)Gal(b1-4)GlcNAc(b1-6)]Man(a1-6)[Neu5Ac(a2-3)Gal(b1-4)GlcNAc(b1-2)Man(a1-3)][GlcNAc(b1-4)]Man(b1-4)GlcNAc(b1-4)GlcNAc
Procedure, shortened: as §1

[19] = target: Neu5Ac(a2-3)Gal(b1-4)GlcNAc(b1-3)Gal
Procedure, shortened: as §1

[20] = target: Neu5Ac(a2-3)Gal(b1-4)GlcNAc(b1-3)Gal(b1-3)GlcNAc
Procedure, shortened: as §1

[21] = target: Neu5Ac(a2-3)Gal(b1-4)GlcNAc(b1-3)Gal(b1-4)GlcNAc
Procedure, shortened: as §1

[22] = target: Neu5Ac(a2-3)Gal(b1-4)GlcNAc(b1-3)Gal(b1-4)GlcNAc(b1-2)Man(a1-3)[Neu5Ac(a2-3)Gal(b1-4)GlcNAc(b1-3)Gal(b1-4)GlcNAc(b1-2)Man(a1-6)]Man(b1-4)GlcNAc(b1-4)GlcNAc
Procedure, shortened: as §1

[23] = target: Neu5Ac(a2-3)Gal(b1-4)GlcNAc(b1-3)Gal(b1-4)GlcNAc(b1-3)Gal(b1-4)GlcNAc
Procedure, shortened: as §1

[24] = target: Neu5Ac(a2-3)Gal(b1-4)GlcNAc(b1-3)Gal(b1-4)GlcNAc(b1-3)Gal(b1-4)GlcNAc(b1-2)Man(a1-3)[Neu5Ac(a2-3)Gal(b1-4)GlcNAc(b1-3)Gal(b1-4)GlcNAc(b1-3)Gal(b1-4)GlcNAc(b1-2)Man(a1-6)]GalNAc
Procedure, shortened: as §1

[25] = target: Neu5Ac(a2-3)Gal(b1-4)GlcNAc(b1-3)Gal(b1-4)GlcNAc(b1-3)GalNAc
Procedure, shortened: as §1

[26] = target: Neu5Ac(a2-3)Gal(b1-4)GlcNAc(b1-3)Gal(b1-4)GlcNAc(b1-3)[Neu5Ac(a2-3)Gal(b1-4)GlcNAc(b1-3)Gal(b1-4)GlcNAc(b1-6)]GalNAc
Procedure, shortened: as §1

[27] = target: Neu5Ac(a2-3)Gal(b1-4)GlcNAc(b1-3)Gal(b1-4)GlcNAc(b1-6)[Gal(b1-3)]GalNAc
Procedure, shortened: as §1

[28] = target: Neu5Ac(a2-3)Gal(b1-4)GlcNAc(b1-3)Gal(b1-4)[Fuc(a1-3)]GlcNAc
Procedure, shortened: as §1

[29] = target: Neu5Ac(a2-3)Gal(b1-4)GlcNAc(b1-3)GalNAc
Procedure, shortened: as §1

[30] = target: Neu5Ac(a2-3)Gal(b1-4)GlcNAc(b1-3)[Neu5Ac(a2-3)Gal(b1-4)GlcNAc(b1-6)]GalNAc
Procedure, shortened: as §1

[31] = target: Neu5Ac(a2-3)Gal(b1-4)GlcNAc(b1-6)GalNAc
Procedure, shortened: as §1

[32] = target: Neu5Ac(a2-3)Gal(b1-4)GlcNAc(b1-6)[Gal(b1-3)]GalNAc
Procedure, shortened: as §1

[33] = target: Neu5Ac(a2-3)Gal(b1-4)GlcNAc(b1-6)[Neu5Ac(a2-3)Gal(b1-3)]GalNAc
Procedure, shortened: as §1

[34] = target: Neu5Ac(a2-3)Gal(b1-4)GlcNAc6S
Procedure, shortened: as §1

[35] = target: Neu5Ac(a2-3)Gal(b1-4)[Fuc(a1-3)]GlcNAc
Procedure, shortened: as §1

[36] = target: Neu5Ac(a2-3)Gal(b1-4)[Fuc(a1-3)]GlcNAc(b1-2)Man
Procedure, shortened: as §1

[37] = target: Neu5Ac(a2-3)Gal(b1-4)[Fuc(a1-3)]GlcNAc(b1-3)Gal
Procedure, shortened: as §1

[38] = target: Neu5Ac(a2-3)Gal(b1-4)[Fuc(a1-3)]GlcNAc(b1-3)Gal(b1-4)GlcNAc
Procedure, shortened: as §1

[39] = target: Neu5Ac(a2-3)Gal(b1-4)[Fuc(a1-3)]GlcNAc(b1-3)Gal(b1-4)[Fuc(a1-3)]GlcNAc(b1-3)Gal(b1-4)[Fuc(a1-3)]GlcNAc
Procedure, shortened: as §1

[40] = target: Neu5Ac(a2-3)Gal(b1-4)[Fuc(a1-3)]GlcNAc(b1-3)GalNAc
Procedure, shortened: as §1

[41] = target: Neu5Ac(a2-3)Gal(b1-4)[Fuc(a1-3)]GlcNAc(b1-6)[Gal(b1-3)]GalNAc
Procedure, shortened: as §1

[42] = target: Neu5Ac(a2-3)Gal(b1-4)[Fuc(a1-3)]GlcNAc(b1-6)[Neu5Ac(a2-3)Gal(b1-3)]GalNAc
Procedure, shortened: as §1

[43] = target: Neu5Ac(a2-3)Gal(b1-4)[Fuc(a1-3)]GlcNAc6S
Procedure, shortened: as §1

[44] = target: Neu5Ac(a2-3)Gal6S(b1-4)GlcNAc
Procedure, shortened: as §1

B1: OS9-MRH (Homo sapiens), Q13438 (protein)
chain: IPELLSPMRDAPCLLKTKDWWTYEFCYGRHIQQYHMEDSEIKGEVLYLGYYQSAFDWDDETAKASKQHRLKRYHSQTYGNGSKCDLNGRPREAEVRFLCDEGAGISGDYIDRVDEPLSCSYVLTIRTPRLCPHPLLRPPPSAAPQAI
glycan array binding signal (z-score) [1]: -0.755
glycan array binding signal (z-score) [2]: -0.543
glycan array binding signal (z-score) [3]: 0.861
glycan array binding signal (z-score) [4]: 0.54
glycan array binding signal (z-score) [5]: 0.737
glycan array binding signal (z-score) [6]: 1.34
glycan array binding signal (z-score) [7]: 0.248
glycan array binding signal (z-score) [8]: -0.321
glycan array binding signal (z-score) [9]: 1.16
glycan array binding signal (z-score) (Neu5Ac(a2-3)Gal(b1-4)Glc): -0.307
glycan array binding signal (z-score) [10]: -0.978
glycan array binding signal (z-score) [11]: -1.27
glycan array binding signal (z-score) [12]: -2.15
glycan array binding signal (z-score) [13]: 0.453
glycan array binding signal (z-score) [14]: 0.192
glycan array binding signal (z-score) [15]: -0.346
glycan array binding signal (z-score) [16]: -0.218
glycan array binding signal (z-score) [17]: 0.322
glycan array binding signal (z-score) [18]: -0.089
glycan array binding signal (z-score) [19]: 0.293
glycan array binding signal (z-score) [20]: -0.607
glycan array binding signal (z-score) [21]: -1.25
glycan array binding signal (z-score) [22]: 0.816
glycan array binding signal (z-score) [23]: -0.435
glycan array binding signal (z-score) [24]: -0.519
glycan array binding signal (z-score) [25]: -0.111
glycan array binding signal (z-score) [26]: 0.661
glycan array binding signal (z-score) [27]: -0.547
glycan array binding signal (z-score) [28]: 1.27
glycan array binding signal (z-score) [29]: -0.031
glycan array binding signal (z-score) [30]: -0.105
glycan array binding signal (z-score) [31]: -0.175
glycan array binding signal (z-score) [32]: -1.17
glycan array binding signal (z-score) [33]: -1.21
glycan array binding signal (z-score) [34]: -0.094
glycan array binding signal (z-score) [35]: 0.494
glycan array binding signal (z-score) [36]: -0.503
glycan array binding signal (z-score) [37]: -0.415
glycan array binding signal (z-score) [38]: -0.211
glycan array binding signal (z-score) [39]: -1.29
glycan array binding signal (z-score) [40]: 0.151
glycan array binding signal (z-score) [41]: -0.705
glycan array binding signal (z-score) [42]: 0.08
glycan array binding signal (z-score) [43]: -1.32
glycan array binding signal (z-score) [44]: -1.42
